Results as given in PubChem BioAssay AID2685 (National Center for Advancing Translational Sciences (NCATS), 2010).
Some of the results follow. Shown are side measurements of this screen, not its main read-out; they come without a call. The list favours compounds with an active or inconclusive main result. Potencies come from curve fits of mixed quality, noted in brackets.

Experiment: qHTS Assay for Lipid Storage Modulators in Drosophila S3 Cells;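 as to cell number change: cells counted by Cell Tracker Red CMTPX staining in the red channel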
Settings: BODIPY lipid droplet fluorescence, 18-24 h; for cell number change: measured here: cell count max response, cells fed with added oleic acid
How it was run: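 Drosophila S3 cells got compounds at several concentrations plus oleic acid (400 uM solution). Laser-scanning cytometry with 488 nm excitation read lipid droplets at 500-530 nm and cells at 575-640 nm. Percent activity was relative to 20 uM Triacsin C.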

[1] = measured here: lipid fluorescence (Fed channel) AC50, cells fed with added oleic acid
[2] = measured here: cell number channel AC50, cells fed with added oleic acid

SMILES | AC50 [1] | cell number change | AC50 [2]
CC(NC(=O)[C@H](NC(=O)[C@@H]1Cc2ccccc2CN1)c1ccccc1)c1ccccc1 (stereo partly drawn) | 20.6 µM [rising, single point] | – | –
O=C(N=Nc1c(O)[nH]c2ccccc12)c1cccc(S(=O)(=O)N2CCCCC2)c1 | 10.3 µM [rising, partial curve, poor fit] | 76.6% | 0.58 µM [rising, full curve, poor fit]
CCOc1ccc(-c2ccc(NS(=O)(=O)c3cc([N+](=O)[O-])c(C)c([N+](=O)[O-])c3)cc2)nn1 | 6.51 µM [falling, single point] | – | –
O=C(Nc1nc2ccccc2n1CCN1CCOCC1)c1cn(-c2ccccc2)nc1-c1ccccc1 | 1.03 µM [rising, full curve, poor fit] | -15.5% | –
CCN(CC(=O)NCCCN1CCOCC1)S(=O)(=O)c1ccc(Cl)cc1 | 29.1 µM [rising, single point] | – | –
Cc1ccc(S(=O)(=O)Nc2cc(-c3ccccc3)nn2C)cc1 | 0.259 µM [falling, full curve, poor fit] | -3.91% | –
Cn1nnc(NC(=O)C(c2ccccc2)c2ccccc2)n1 | 0.0291 µM [rising, full curve, poor fit] | 6.45% | –
Cc1cccc(N2CCN(c3nc4ccc(Cl)cc4n4cnnc34)CC2)c1C | 29.1 µM [falling, single point] | -45.1% | 20.6 µM [falling, single point]
CC(CC(=O)N1CCN(S(=O)(=O)c2ccccc2)CC1)n1cncn1 (stereo not drawn) | 29.1 µM [rising, partial curve, poor fit] | 17.4% | –
CN(C)CCCN(C(=O)c1cc(-c2cccs2)nc2ccccc12)c1nc2c(F)cccc2s1 | 9.2 µM [rising, partial curve, poor fit] | 46% | 11.6 µM [rising, partial curve, poor fit]
COc1cc([N+](=O)[O-])ccc1Nc1nc(C)cc(C)n1 | – | 99.1% | 6.51 µM [falling, single point]
CCN(CC)C(=O)C1CCCN(Cc2ccccc2F)C1 (stereo not drawn) | 5.8 µM [falling, full curve] | 4.81% | –
COc1ccc(-c2nc(C#N)c(NCc3ccccc3Cl)o2)cc1OC | – | -46.5% | 29.1 µM [falling, single point]
CCOc1ccccc1NC(=O)CNC(=O)c1nn(-c2ccc(OC)c(OC)c2)c(=O)c2ccccc12 | – | -38.9% | 9.2 µM [falling, partial curve, poor fit]

Another view of two compounds above.
SMILES	AC50 [1]	cell number change	AC50 [2]
CCN(CC)C(=O)C1CCCN(Cc2ccccc2F)C1 (stereo not drawn)	5.8 µM [falling, full curve]	4.81%	–
COc1ccc(-c2nc(C#N)c(NCc3ccccc3Cl)o2)cc1OC	–	-46.5%	29.1 µM [falling, single point]
